Data as given in PubChem BioAssay AID652243 (Drosophila RNAi Screening Center, 2013)
In all, the deposit lists about 24,000 reagents; this is a random part of those that have a named target and a result. Of all reagents, 246 (1%) got an active call. 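Plates not normalised; calls are printed but the firefly/Renilla ratio behind them is not deposited; fold cut for lowering reported inconsistently.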 Raw values vary from plate to plate and are shown uncorrected. A plus sign joins genes that one reagent is predicted to hit. Reagent sequences are not shown. Not stated in the record: the amount of reagent.

Assay: 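Fly genes required for human androgen receptor driven transcription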 (primary screen)
System: Drosophila S2R+ cells
Knock-down reagent: long dsRNA against Drosophila genes
Duration: 72 h (48 h, then 24 h hormone)
Conditions: synthetic androgen R1881 at 10 nM for 24 h
Measured: 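Firefly light from an androgen-responsive reporter and Renilla control light per well, raw and unnormalised, for each of two replicates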
Reading the numbers: firefly reporter light: higher = more light from androgen-responsive reporter; Renilla control light: higher = more constitutive control signal (cell number, transfection)
Call rule: 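Across duplicate plates, a knock-down whose log firefly/Renilla ratio shifted a set fold down or up from the GFP/LacZ control mean was a hit; the downward cut appears as both 1.5 and 3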
Calls: active = hit: reporter lowered or raised; inactive = no hit

firefly reporter light, replicate 1	firefly reporter light, replicate 2	Renilla control light, replicate 1	Renilla control light, replicate 2	call	target gene	amplicon
74307	75788	1.27e6	1.30e6	inactive	CG14834	DRSC10204
6.12e5	8.86e5	1.04e6	1.06e6	inactive	CG14834	DRSC28202
4.67e5	4.55e5	2.15e6	2.19e6	inactive	mRpL52 (mitochondrial ribosomal protein L52)	DRSC06585
2.70e5	3.02e5	2.10e6	3.27e6	inactive	Ser (Serrate)	DRSC16856
1.94e5	1.20e5	5.85e5	3.84e5	inactive	Ser (Serrate)	DRSC25494
1.00e5	66675	3.20e5	1.88e5	inactive	CG33285	DRSC11463
6.80e5	4.87e5	8.57e5	6.11e5	inactive	CG33285	DRSC26954
84003	2.33e5	9.83e5	9.83e5	inactive	CG4866	DRSC06899
9.02e5	5.02e5	9.33e5	8.71e5	inactive	Mlh1	DRSC07473
17748	17743	1.61e5	2.03e5	inactive	Cyp305a1 (Cytochrome P450 305a1)	DRSC11126
1.02e6	9.30e5	2.67e6	2.08e6	inactive	CG3285	DRSC00589
22116	42762	2.98e5	3.03e5	inactive	alpha-Est3 (alpha-Esterase-3)	DRSC12615
29639	21415	4.21e5	4.10e5	inactive	AdamTS-A (ADAM metallopeptidase with thrombospondin type 1 motif A)	DRSC14992
2.65e5	2.01e5	2.93e6	3.38e6	inactive	AdamTS-A (ADAM metallopeptidase with thrombospondin type 1 motif A)	DRSC15966
3.93e5	3.21e5	3.31e6	3.36e6	inactive	CG14797 + CG32809	DRSC18562
1.70e5	1.89e5	1.53e6	2.10e6	inactive	CR33317 (pseudo)	DRSC02653
1.08e5	97713	2.13e6	1.50e6	inactive	CG7514	DRSC08597
7.17e5	9.03e5	8.70e5	8.97e5	inactive	CG7514	DRSC25670
1.98e5	1.81e5	2.20e6	1.76e6	inactive	lin-28	DRSC10261
1.08e5	1.06e5	1.24e6	1.04e6	inactive	Acp62F (Accessory gland protein 62F)	DRSC08136
1.49e5	1.31e5	2.30e6	2.15e6	inactive	MAGE	DRSC12504

Next part; the last 4 above are carried over.
firefly reporter light, replicate 1	firefly reporter light, replicate 2	Renilla control light, replicate 1	Renilla control light, replicate 2	call	target gene	amplicon
7.17e5	9.03e5	8.70e5	8.97e5	inactive	CG7514	DRSC25670
1.98e5	1.81e5	2.20e6	1.76e6	inactive	lin-28	DRSC10261
1.08e5	1.06e5	1.24e6	1.04e6	inactive	Acp62F (Accessory gland protein 62F)	DRSC08136
1.49e5	1.31e5	2.30e6	2.15e6	inactive	MAGE	DRSC12504
6.82e5	4.40e5	4.53e6	4.82e6	inactive	Rab9Fb (Rab at 9Fb)	DRSC19854
1.81e5	2.30e5	2.83e6	3.19e6	inactive	Ugt303B2 (UDP-glycosyltransferase family 303 member B2)	DRSC14198
3.97e5	8.62e5	1.20e6	2.04e6	inactive	Ugt303B2 (UDP-glycosyltransferase family 303 member B2)	DRSC22864
2.57e5	3.29e5	1.24e6	1.41e6	inactive	Or33b (Odorant receptor 33b)	DRSC03387
8.96e5	5.56e5	1.30e6	9.51e5	inactive	Tak1 (TGF-beta activated kinase 1)	DRSC20390
1.27e5	81095	4.58e5	2.88e5	inactive	Tak1 (TGF-beta activated kinase 1)	DRSC20561
2.30e5	1.42e5	6.38e5	3.91e5	inactive	Tak1 (TGF-beta activated kinase 1)	DRSC20562
1.76e5	1.36e5	2.73e6	2.69e6	inactive	CG14257	DRSC14752
3.25e5	3.26e5	4.73e5	6.08e5	inactive	CG14257	DRSC27835
50556	1.36e5	2.20e6	2.38e6	inactive	CkIIalpha (casein kinase IIalpha)	DRSC11946
				inactive	CkIIalpha (casein kinase IIalpha)	DRSC36991
4.75e5	4.75e5	4.07e6	3.34e6	inactive	CG2652	DRSC18501
4.76e5	5.94e5	1.61e6	1.65e6	inactive	CG2652	DRSC22576
3.37e5	2.24e5	5.25e5	4.23e5	inactive	CG2652	DRSC27496
1.70e5	1.37e5	2.70e6	1.85e6	inactive	CG13258	DRSC02244
4.10e5	3.39e5	2.24e6	1.79e6	inactive	Def (Defensin)	DRSC07398
35997	47549	1.79e5	3.50e5	inactive	Rbf (Retinoblastoma-family protein)	DRSC18704
6.06e5	4.12e5	4.08e5	4.42e5	inactive	Rbf (Retinoblastoma-family protein)	DRSC25213
61348	1.01e5	4.92e5	4.15e5	inactive	CG4194	DRSC18520
1.51e5	1.55e5	1.67e6	2.17e6	inactive	CG15023	DRSC08477
6.98e5	6.57e5	6.83e5	6.61e5	inactive	CG15023	DRSC25462
7.24e5	1.07e6	1.51e6	1.56e6	inactive	msb1l	DRSC03572
3.13e5	2.74e5	5.27e5	5.53e5	inactive	msb1l	DRSC26438
1.30e5	54548	1.91e5	1.04e5	inactive	FER (FER tyrosine kinase)	DRSC12735
49957	1.10e5	1.62e6	9.43e5	inactive	FER (FER tyrosine kinase)	DRSC16673
4.43e5	2.23e5	1.30e6	1.04e6	inactive	FER (FER tyrosine kinase)	DRSC29894
				inactive	FER (FER tyrosine kinase)	DRSC36606
2.09e5	1.48e5	4.64e5	3.56e5	inactive	tut (tumorous testis)	DRSC08909
2.33e5	1.21e5	5.07e5	2.08e5	inactive	CG32213 + CG12519 + 825-Oak + 1 more	DRSC09615
1.04e6	1.15e6	2.67e6	2.39e6	inactive	Hydr2 (alpha/beta hydrolase2)	DRSC00607
66123	76844	1.17e6	1.88e6	inactive	mRpL47 (mitochondrial ribosomal protein L47)	DRSC16827
2.13e5	1.91e5	1.88e6	1.92e6	inactive	CG17637	DRSC11740
5.64e5	7.25e5	1.39e6	1.38e6	inactive	Akap200 (A kinase anchor protein 200)	DRSC01864
				inactive	Akap200 (A kinase anchor protein 200)	DRSC36791
1.10e5	71578	9.86e5	5.79e5	inactive	Mvl (Malvolio)	DRSC16752
1.94e5	2.41e5	2.68e6	2.57e6	inactive	CG10793	DRSC17760
2.24e5	2.10e5	3.33e6	3.30e6	inactive	CG5281	DRSC15761
